PubChem BioAssay AID686943 – Drosophila RNAi Screening Center – 2013
The deposit covers about 23,000 reagents; this is a random part of those that have a named target and a result. 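Extra replicates exist only for a retested subset of genes; insulin dose and duration not given; both raised and lowered dpERK matter.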 The numbers tell different reagents against one gene apart. A plus sign joins genes that one reagent is predicted to hit. Further read-outs or replicates are left out here. The record does not give: the amount of reagent, the time to read-out.

- Screen: 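Knockdowns that increase or decrease active ERK after insulin receptor stimulation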 (primary screen)
- Cell system: Drosophila S2R+ haemocyte-like cells expressing YFP-tagged ERK (Rolled)
- Reagent: long dsRNA against Drosophila genes
- Conditions: insulin stimulation versus unstimulated cells; dose and duration not given
- Measured: 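Per-plate z-scores of phospho-ERK immunostaining normalised to YFP-tagged ERK, measured with and without insulin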
- Direction: replicate 1, z-score of dpERK with insulin and replicate 2, z-score of dpERK with insulin: higher = more active ERK per ERK-YFP after insulin

predicted target | reagent | replicate 1, z-score of dpERK with insulin | replicate 2, z-score of dpERK with insulin
twi (GeneID 37655) | 1 | 0.11 | 1.62
Mal-B1 (GeneID 34597) | 1 | 1.41 | 0.02
Elba1 (GeneID 33669) | 1 | -0.06 | 0.9
mahe (GeneID 31707) | 1 | -1.11 | -0.1
CG12531 (GeneID 32986) | 1 | 1.12 | 0.13
CG11509 (retired record) (GeneID 31115) | 1 | 0.64 | 1.08
Mkrn1 (GeneID 44131) | 1 | 0.59 | 0.37
nAChRalpha1 (GeneID 42918) | 1 | -1.18 | -2.98
nAChRalpha1 (GeneID 42918) | 2 | -3.93 | -2.01
nAChRalpha1 (GeneID 42918) | 3 | 1.89 | 0.82
nAChRalpha1 (GeneID 42918) | 4 | 0.17 | 1.07
UGP + PGRP-LF | 1 | 0.46 | 0.23
EMC2B + EMC2A | 1 | 1.59 | 0.52
peg (GeneID 50050) | 1 | 0.71 | -0.48
CG7183 (GeneID 42181) | 1 | -0.32 | 0.48
Sk2 (GeneID 326219) | 1 | 0.15 | -0.02
EcR (GeneID 35540) | 1 | 1.23 | 0.87
EcR (GeneID 35540) | 2 | 0.38 | 1.54
Sem1 (GeneID 50428) | 1 | -2.07 | -2.12
Vinc (GeneID 31201) | 1 | -0.02 | -0.33
Acp65Aa (GeneID 38710) | 1 | 0 | 0.36
aurB (GeneID 34504) | 1 | 0.84 | 0.39
CG8301 (GeneID 41160) | 1 | -0.53 | 0.24
CG16723 (GeneID 42781) | 1 | 0.87 | -0.15
CG15706 (GeneID 36799) | 1 | -0.66 | 0.47
CG8142 (GeneID 32763) | 1 | 0.37 | 0.8
CG30376 (GeneID 246576) | 1 | 0.51 | 0.09
Optix (GeneID 44108) | 1 | 1.13 | 1.13
Optix (GeneID 44108) | 2 | -0.08 | -0.44
Optix (GeneID 44108) | 3 | 0.58 | 0.4
lectin-30A (GeneID 53541) | 1 | -0.13 | 0.57
CG31279 (GeneID 318657) | 1 | -0.27 | 0.09
comm2 (GeneID 39716) | 1 | -2.17 | -0.77
comm2 (GeneID 39716) | 2 | 0.46 | 0.44
CG31460 (GeneID 318747) | 1 | -0.83 | -0.5
Tob (GeneID 32574) | 1 | 0.68 | 0.03
Ras64B (GeneID 38494) | 1 | -2.42 | -1.91
ida (GeneID 45574) | 1 | 0.16 | 0.91
Ir51b (GeneID 246442) | 1 | 0.97 | 0.45
